The values that follow come from PubChem BioAssay AID1338 (Columbia University Molecular Screening Center, 2008).

Amino acid sequences for entries named in this document (tags omitted).
UniProt Q9Y2R2, whole entry, looked up: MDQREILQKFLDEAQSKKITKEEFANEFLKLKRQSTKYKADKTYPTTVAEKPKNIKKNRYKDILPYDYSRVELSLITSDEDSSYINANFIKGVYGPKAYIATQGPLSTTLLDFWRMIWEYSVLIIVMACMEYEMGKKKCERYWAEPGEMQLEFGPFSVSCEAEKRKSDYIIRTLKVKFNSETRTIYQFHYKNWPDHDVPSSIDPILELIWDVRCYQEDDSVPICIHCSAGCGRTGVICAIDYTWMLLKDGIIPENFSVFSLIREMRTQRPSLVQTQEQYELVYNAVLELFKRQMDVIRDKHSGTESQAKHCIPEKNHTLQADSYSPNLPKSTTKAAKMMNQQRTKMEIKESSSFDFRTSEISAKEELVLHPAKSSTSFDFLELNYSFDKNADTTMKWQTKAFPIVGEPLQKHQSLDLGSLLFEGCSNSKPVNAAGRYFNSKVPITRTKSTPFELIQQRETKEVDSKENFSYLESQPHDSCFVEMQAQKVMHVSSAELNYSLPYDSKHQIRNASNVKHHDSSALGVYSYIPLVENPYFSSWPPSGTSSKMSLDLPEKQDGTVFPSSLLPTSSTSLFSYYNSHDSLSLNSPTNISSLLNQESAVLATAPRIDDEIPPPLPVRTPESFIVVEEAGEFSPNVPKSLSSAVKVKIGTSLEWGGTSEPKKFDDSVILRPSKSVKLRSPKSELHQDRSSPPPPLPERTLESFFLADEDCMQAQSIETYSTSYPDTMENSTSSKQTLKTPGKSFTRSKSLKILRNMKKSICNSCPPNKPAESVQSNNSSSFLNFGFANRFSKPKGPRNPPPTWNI

In this test the target is Tyrosine-protein phosphatase non-receptor type 22 (Homo sapiens) (UniProt Q9Y2R2). Nature of the test: PTPN22 enzyme inhibition, catalase-containing buffer – biochemical, catalase added, Infinite200, 384-well (AID 1338). Conditions: Recombinant LYP, DiFMUP fluorescence, with catalase; at 10 µM; stronger effect = higher value.

Broadly, the inhibition is how much of the control response was suppressed.

On to `Cc1c2cc(O)c(=O)cc-2oc2cc(O)c(O)cc12`, for which the inhibition is 68.6%.
